In doi:10.1101/2024.11.03.621741 (bioRxiv, 2024):
No constants are given. Whether binding was seen depends on the method and setting. For part of these data: Binding seen in cells or lysates may run through a third protein. Some binding calls cover weakened binding; strength is not graded here. Sequences can lack the tags named with a protein.

Chains of the proteins cited; added tags and fusions are not shown.
UniProt Q06609: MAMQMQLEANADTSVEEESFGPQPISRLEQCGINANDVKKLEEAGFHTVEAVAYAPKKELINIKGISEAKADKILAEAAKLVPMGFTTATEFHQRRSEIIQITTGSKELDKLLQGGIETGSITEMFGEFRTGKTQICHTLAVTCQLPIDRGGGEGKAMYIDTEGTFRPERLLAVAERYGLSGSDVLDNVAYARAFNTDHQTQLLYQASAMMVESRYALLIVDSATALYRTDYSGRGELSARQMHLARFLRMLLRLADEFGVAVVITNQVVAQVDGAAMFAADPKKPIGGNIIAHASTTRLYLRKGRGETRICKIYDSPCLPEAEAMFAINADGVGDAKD

Tests used:
[1] = target: T1, EGFP-FIGNL1 (full length) (human) (UniProt Q6PIW4); test: co-IP
T1 sequence: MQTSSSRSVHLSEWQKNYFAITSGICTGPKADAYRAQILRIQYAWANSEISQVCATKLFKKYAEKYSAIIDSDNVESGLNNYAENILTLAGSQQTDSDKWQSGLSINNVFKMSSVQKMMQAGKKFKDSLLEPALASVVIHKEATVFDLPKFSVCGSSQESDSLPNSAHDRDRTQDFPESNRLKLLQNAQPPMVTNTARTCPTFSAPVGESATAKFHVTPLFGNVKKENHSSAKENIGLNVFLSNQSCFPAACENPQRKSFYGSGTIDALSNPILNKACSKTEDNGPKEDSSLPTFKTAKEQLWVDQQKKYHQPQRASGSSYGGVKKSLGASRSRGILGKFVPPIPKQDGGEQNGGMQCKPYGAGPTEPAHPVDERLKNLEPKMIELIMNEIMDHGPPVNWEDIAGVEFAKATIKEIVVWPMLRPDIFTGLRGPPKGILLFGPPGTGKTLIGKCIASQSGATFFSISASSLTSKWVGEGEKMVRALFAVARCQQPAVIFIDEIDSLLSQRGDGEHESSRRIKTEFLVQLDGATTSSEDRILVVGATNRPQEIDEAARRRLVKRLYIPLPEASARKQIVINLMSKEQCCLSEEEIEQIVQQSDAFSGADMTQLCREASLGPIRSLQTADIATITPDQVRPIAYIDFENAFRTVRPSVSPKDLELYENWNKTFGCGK

MBP-MMS22L-His (human) = target: T2, MBP-MMS22L-His (human) (UniProt Q6ZRQ5); test: co-purification
T2 sequence: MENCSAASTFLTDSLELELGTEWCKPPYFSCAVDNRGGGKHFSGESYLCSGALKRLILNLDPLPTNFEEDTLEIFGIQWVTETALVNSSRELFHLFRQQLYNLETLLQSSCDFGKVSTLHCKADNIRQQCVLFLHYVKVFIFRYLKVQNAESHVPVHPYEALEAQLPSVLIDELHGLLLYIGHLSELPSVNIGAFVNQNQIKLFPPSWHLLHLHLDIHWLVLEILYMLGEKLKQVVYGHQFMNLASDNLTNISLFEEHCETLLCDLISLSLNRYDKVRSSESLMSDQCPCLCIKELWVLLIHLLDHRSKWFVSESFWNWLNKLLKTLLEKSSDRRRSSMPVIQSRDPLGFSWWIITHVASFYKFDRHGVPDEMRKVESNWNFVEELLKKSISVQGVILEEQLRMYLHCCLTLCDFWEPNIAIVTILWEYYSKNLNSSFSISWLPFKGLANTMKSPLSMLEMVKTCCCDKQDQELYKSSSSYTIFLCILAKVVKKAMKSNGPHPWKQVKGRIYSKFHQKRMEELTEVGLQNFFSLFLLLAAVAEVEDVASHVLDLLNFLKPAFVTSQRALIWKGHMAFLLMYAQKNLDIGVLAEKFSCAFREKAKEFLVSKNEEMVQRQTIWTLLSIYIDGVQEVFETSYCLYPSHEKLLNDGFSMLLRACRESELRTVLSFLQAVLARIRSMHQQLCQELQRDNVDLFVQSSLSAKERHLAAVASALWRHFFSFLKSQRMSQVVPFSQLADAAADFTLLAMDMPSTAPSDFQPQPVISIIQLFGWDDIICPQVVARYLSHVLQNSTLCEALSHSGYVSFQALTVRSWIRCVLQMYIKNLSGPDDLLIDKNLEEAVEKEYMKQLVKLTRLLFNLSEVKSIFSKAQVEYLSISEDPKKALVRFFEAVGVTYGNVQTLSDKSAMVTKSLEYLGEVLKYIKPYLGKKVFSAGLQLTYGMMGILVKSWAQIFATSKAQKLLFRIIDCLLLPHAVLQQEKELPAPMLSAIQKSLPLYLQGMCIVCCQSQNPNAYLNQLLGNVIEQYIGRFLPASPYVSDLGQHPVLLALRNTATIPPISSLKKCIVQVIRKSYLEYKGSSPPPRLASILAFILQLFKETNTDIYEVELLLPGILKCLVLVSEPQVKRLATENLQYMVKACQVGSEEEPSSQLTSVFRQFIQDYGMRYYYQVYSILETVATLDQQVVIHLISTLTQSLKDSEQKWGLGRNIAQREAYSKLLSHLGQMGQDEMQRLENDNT

Question: Which binding [1] does the source give for “MMS22L-TONSL complex (endogenous, RPE1 nuclear extract) (from UniProt Q6ZRQ5;Q96HA7)” here?
Answer: binds

Question: With “RAD51 (endogenous, RPE1 nuclear extract) (from UniProt Q06609 1-339)” as the molecule, how does the binding [1] read?
Answer: binds

B1: GST-TONSL (protein, UniProt Q96HA7 1-1378)
chain: MSLERELRQLSKAKAKAQRAGQRREEAALCHQLGELLAGHGRYAEALEQHWQELQLRERADDPLGCAVAHRKIGERLAEMEDYPAALQHQHQYLELAHSLRNHTELQRAWATIGRTHLDIYDHCQSRDALLQAQAAFEKSLAIVDEELEGTLAQGELNEMRTRLYLNLGLTFESLQQTALCNDYFRKSIFLAEQNHLYEDLFRARYNLGTIHWRAGQHSQAMRCLEGARECAHTMRKRFMESECCVVIAQVLQDLGDFLAAKRALKKAYRLGSQKPVQRAAICQNLQHVLAVVRLQQQLEEAEGRDPQGAMVICEQLGDLFSKAGDFPRAAEAYQKQLRFAELLDRPGAERAIIHVSLATTLGDMKDHHGAVRHYEEELRLRSGNVLEEAKTWLNIALSREEAGDAYELLAPCFQKALSCAQQAQRPQLQRQVLQHLHTVQLRLQPQEAPETETRLRELSVAEDEDEEEEAEEAAATAESEALEAGEVELSEGEDDTDGLTPQLEEDEELQGHLGRRKGSKWNRRNDMGETLLHRACIEGQLRRVQDLVRQGHPLNPRDYCGWTPLHEACNYGHLEIVRFLLDHGAAVDDPGGQGCEGITPLHDALNCGHFEVAELLLERGASVTLRTRKGLSPLETLQQWVKLYRRDLDLETRQKARAMEMLLQAAASGQDPHSSQAFHTPSSLLFDPETSPPLSPCPEPPSNSTRLPEASQAHVRVSPGQAAPAMARPRRSRHGPASSSSSSEGEDSAGPARPSQKRPRCSATAQRVAAWTPGPASNREAATASTSRAAYQAAIRGVGSAQSRLGPGPPRGHSKALAPQAALIPEEECLAGDWLELDMPLTRSRRPRPRGTGDNRRPSSTSGSDSEESRPRARAKQVRLTCMQSCSAPVNAGPSSLASEPPGSPSTPRVSEPSGDSSAAGQPLGPAPPPPIRVRVQVQDHLFLIPVPHSSDTHSVAWLAEQAAQRYYQTCGLLPRLTLRKEGALLAPQDLIPDVLQSNDEVLAEVTSWDLPPLTDRYRRACQSLGQGEHQQVLQAVELQGLGLSFSACSLALDQAQLTPLLRALKLHTALRELRLAGNRLGDKCVAELVAALGTMPSLALLDLSSNHLGPEGLRQLAMGLPGQATLQSLEELDLSMNPLGDGCGQSLASLLHACPLLSTLRLQACGFGPSFFLSHQTALGSAFQDAEHLKTLSLSYNALGAPALARTLQSLPAGTLLHLELSSVAAGKGDSDLMEPVFRYLAKEGCALAHLTLSANHLGDKAVRDLCRCLSLCPSLISLDLSANPEISCASLEELLSTLQKRPQGLSFLGLSGCAVQGPLGLGLWDKIAAQLRELQLCSRRLCAEDRDALRQLQPSRPGPGECTLDHGSKLFFRRL
Question: How did the binding (MBP-MMS22L-His (human)) turn out when B1 was run?
Answer: binds
